This test is described as follows: qHTS Assay for Lipid Storage Modulators in Drosophila S3 Cells.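 For cell number change: cells counted by Cell Tracker Red CMTPX staining in the red channel.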 Conditions: BODIPY lipid droplet fluorescence, 18-24 h; for cell number change: measured here: cell count max response, cells fed with added oleic acid. Put shortly:
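Drosophila S3 cells loaded with oleic acid (400 uM, as added) and compounds at several concentrations; lipid droplets imaged by 488-nm laser-scanning cytometry, 500–530 nm intensity and object ratio to cell channel. Percent activity normalized to 20 uM Triacsin C.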
In general terms: Quantitative high-throughput screening tests each substance at several concentrations.

Setting [1] is: measured here: cell number channel AC50, cells fed with added oleic acid.
[2] abbreviates: measured here: lipid fluorescence (Fed channel) AC50, cells fed with added oleic acid.

We go through 16 compounds from PubChem BioAssay AID2685 (National Center for Advancing Translational Sciences (NCATS), 2010).

The list shows a part of the results. The main result of the screen is listed elsewhere. These columns were measured beside it and carry no call. Compounds called inactive in the main read-out are mostly missing here. Potencies come from curve fits of mixed quality, noted in brackets.

Turning to `O=c1c2c(-c3ccccc3)csc2nc2c3ccccc3c(NCCN3CCOCC3)nn12`, the cell number change was -63.9%. Further, the AC50 (commonly the concentration giving half of the maximal activity seen) under setting [1] was 29.1 µM [falling, partial curve, poor fit]. In addition, under setting [2], the AC50 is 29.1 µM [falling, single point].
Consider `O=C(COc1ccc(Br)cc1Cl)NC(=O)NC1CCCC1`, for which the cell number change is -43.9%. Besides, the AC50 under setting [1] is 29.1 µM [falling, single point]. Under setting [2], the AC50 was 18.4 µM [falling, single point].
As for `CC(C)(C)C(=O)/C=c1\[nH]c(=O)/c(=C\c2ccc(C#N)cc2)s1`, the cell number change was -40.1%. Besides, under setting [1], the half-maximal activity concentration (AC50) is 10.3 µM [falling, partial curve, poor fit]. In addition, under setting [2], the AC50 was 4.11 µM [rising, single point].
On to `CC(=O)Nc1ccc2c(c1)nc1n2CCOC1`, for which the cell number change was -111%. Besides, the concentration at half-maximal activity (AC50) under setting [1] was 18.4 µM [falling, partial curve]. Moreover, the AC50 under setting [2] was 0.13 µM [falling, full curve, poor fit].
Regarding `Cc1cc(C)c(S(=O)(=O)c2cccc(Cl)c2)c(Cl)n1`, the cell number change turned out to be 16.9%.
The same measure, in the same setting: the result for `COc1c(C)cc(C(=O)C2CCCN(S(=O)(=O)N(C)C)C2)cc1C` (configuration not stated) reads -10.9%.
In the case of `C=CCN1C(=O)C(Cc2cccc(Cl)c2)S/C1=N/N=C/c1ccco1` (configuration not stated), the concentration at half-maximal activity (AC50) under setting [2] was 2.59 µM [rising, partial curve].
As to `O=C(CC(=O)N/N=C\c1cccc(Cl)c1Cl)NCc1ccccc1`, the cell number change was found to be 20.8%. Also, the half-maximal activity concentration (AC50) under setting [2] was 0.00461 µM [rising, full curve].
Take `O=C(Nc1ccc(N2CCOCC2)cc1)Nc1cnsn1`: the cell number change worked out at 87.4%. Besides, under setting [1], the AC50 was 16.4 µM [rising, single point].
Turning to `CCOc1ccc(-c2cccc(NC(=O)c3cccs3)c2)nn1`, the cell number change came to 36.6%. Further, the half-maximal activity concentration (AC50) under setting [1] is 2.31 µM [rising, full curve].
For the compound `CC(C)NS(=O)(=O)c1ccc(NC(=O)C(C)OC(=O)CCCOc2ccccc2)cc1` (configuration not stated), the cell number change is 145%. Further, the concentration at half-maximal activity (AC50) under setting [1] was 23.1 µM [rising, partial curve].
On to `COc1ccc(-n2c(SC)nc(O)c(Cc3ccccc3)c2=O)cc1`, for which the cell number change is -2.51%.
Turning to `O=C(c1cccc([N+](=O)[O-])c1)N1CCN(Cc2ccccc2)CC1`, the cell number change is -12.8%. Also, under setting [1], the concentration at half-maximal activity (AC50) was 6.51 µM [falling, single point].
Take `Cc1ccc(C(=O)NCc2nnc(SCC(=O)Nc3ccccc3)n2C)cc1`: the AC50 under setting [2] is 6.51 µM [rising, partial curve, poor fit].
With `Cc1cc(Cl)ccc1OCC(=O)Nc1cccnc1`, the cell number change is -26.4%. Further, the AC50 under setting [1] was 0.231 µM [falling, full curve, poor fit]. In addition, the AC50 under setting [2] was 29.1 µM [rising, single point].
Turning to `CCN(CC)c1ccc(/C=N/Nc2nc(C)cc(C)n2)cc1`, the cell number change is 17.5%. In addition, under setting [2], the half-maximal activity concentration (AC50) is 0.366 µM [rising, full curve, poor fit].
